Experimental data from PMC8196013.
Results are given in words; binding and its absence hold for the method and conditions named. For part of these data: In cells and extracts the contact can be indirect. Some entries that bind do so weakly or less than the wild type.

By UniProt entry, the sequences of proteins in these tests, tags left out.
UniProt P0A6F5: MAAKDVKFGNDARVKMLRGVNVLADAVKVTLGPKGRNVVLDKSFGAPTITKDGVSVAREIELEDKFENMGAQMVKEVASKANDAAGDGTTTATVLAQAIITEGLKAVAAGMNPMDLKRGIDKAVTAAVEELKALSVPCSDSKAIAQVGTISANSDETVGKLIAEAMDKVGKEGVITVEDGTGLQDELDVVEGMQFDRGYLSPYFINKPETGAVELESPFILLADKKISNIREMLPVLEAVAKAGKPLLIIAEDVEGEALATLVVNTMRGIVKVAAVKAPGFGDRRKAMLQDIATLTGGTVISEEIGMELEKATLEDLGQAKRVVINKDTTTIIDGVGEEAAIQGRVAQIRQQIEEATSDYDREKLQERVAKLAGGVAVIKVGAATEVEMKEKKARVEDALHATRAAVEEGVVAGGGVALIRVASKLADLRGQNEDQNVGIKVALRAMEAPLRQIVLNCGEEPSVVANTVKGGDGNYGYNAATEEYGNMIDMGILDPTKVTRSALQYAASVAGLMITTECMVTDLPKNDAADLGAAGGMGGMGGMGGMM
UniProt P0A8T7: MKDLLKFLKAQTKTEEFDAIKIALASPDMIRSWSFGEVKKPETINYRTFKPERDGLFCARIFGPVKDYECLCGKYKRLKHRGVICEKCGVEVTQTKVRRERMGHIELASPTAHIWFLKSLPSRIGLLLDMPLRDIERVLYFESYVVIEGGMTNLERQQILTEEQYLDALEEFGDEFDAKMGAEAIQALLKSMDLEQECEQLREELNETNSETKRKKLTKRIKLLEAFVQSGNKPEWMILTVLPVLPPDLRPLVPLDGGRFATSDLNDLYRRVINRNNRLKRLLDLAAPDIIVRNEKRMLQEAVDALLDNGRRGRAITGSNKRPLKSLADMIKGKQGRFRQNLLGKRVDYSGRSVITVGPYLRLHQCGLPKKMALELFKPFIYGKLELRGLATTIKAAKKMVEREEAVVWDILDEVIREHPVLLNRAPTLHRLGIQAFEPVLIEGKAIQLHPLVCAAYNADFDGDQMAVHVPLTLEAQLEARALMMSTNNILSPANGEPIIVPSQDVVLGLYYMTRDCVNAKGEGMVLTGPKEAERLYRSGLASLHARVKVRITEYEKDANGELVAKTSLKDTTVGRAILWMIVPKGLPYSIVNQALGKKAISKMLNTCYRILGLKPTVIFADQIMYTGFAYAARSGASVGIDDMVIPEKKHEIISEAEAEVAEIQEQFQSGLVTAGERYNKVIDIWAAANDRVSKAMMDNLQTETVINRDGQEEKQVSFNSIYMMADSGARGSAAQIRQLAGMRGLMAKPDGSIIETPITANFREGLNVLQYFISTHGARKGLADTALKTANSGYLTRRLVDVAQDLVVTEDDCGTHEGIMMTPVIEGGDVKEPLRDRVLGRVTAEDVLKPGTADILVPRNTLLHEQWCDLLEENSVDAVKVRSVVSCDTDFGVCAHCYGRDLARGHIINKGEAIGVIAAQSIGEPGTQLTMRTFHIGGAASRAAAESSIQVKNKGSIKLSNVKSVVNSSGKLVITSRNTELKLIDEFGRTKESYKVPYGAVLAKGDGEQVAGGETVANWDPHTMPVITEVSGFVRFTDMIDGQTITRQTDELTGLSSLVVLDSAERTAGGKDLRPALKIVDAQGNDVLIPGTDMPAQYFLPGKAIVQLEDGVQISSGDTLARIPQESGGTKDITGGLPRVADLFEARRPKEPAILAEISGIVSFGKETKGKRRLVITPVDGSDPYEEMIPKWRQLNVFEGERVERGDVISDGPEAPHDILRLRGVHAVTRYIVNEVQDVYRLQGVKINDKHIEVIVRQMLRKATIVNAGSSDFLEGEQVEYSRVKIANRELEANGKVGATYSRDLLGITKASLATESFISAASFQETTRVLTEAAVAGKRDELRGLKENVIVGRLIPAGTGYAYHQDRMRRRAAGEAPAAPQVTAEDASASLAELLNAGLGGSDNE
UniProt P0A8V2: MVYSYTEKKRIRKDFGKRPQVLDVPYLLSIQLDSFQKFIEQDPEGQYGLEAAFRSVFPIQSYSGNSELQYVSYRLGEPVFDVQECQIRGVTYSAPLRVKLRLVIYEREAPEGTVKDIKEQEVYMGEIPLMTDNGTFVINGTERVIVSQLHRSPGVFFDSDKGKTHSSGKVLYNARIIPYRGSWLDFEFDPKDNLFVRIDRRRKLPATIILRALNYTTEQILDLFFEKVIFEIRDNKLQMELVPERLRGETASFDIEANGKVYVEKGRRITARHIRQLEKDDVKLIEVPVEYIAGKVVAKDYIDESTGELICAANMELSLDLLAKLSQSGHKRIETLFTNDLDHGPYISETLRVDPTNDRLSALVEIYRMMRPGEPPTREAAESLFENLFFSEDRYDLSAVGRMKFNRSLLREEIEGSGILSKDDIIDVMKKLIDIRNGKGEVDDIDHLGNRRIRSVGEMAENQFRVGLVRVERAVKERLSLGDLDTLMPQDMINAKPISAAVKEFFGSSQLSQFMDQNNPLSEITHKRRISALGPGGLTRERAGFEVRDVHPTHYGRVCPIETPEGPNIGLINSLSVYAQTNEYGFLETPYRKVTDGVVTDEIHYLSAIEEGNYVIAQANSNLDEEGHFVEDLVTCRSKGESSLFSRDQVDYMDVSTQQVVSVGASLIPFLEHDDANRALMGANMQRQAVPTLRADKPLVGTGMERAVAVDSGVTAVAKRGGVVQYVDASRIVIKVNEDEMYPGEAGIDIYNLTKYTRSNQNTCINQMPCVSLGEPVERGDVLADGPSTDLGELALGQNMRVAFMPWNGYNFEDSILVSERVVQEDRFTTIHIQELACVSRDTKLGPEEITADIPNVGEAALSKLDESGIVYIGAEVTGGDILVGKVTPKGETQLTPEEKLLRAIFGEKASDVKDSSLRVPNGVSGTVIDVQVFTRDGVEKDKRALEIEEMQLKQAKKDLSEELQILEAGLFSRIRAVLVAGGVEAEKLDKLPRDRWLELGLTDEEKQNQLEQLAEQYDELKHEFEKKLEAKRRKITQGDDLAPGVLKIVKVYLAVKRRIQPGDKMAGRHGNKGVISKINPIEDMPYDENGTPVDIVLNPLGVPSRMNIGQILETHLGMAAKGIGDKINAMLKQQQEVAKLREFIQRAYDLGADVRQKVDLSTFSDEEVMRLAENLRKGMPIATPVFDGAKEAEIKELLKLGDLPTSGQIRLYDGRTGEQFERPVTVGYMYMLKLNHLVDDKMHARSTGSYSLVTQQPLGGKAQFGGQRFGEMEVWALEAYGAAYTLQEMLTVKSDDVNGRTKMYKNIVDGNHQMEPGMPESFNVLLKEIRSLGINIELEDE

T1: YqjD (E. coli K12 (endogenous in BW25113)) (UniProt P64581)
T1 sequence: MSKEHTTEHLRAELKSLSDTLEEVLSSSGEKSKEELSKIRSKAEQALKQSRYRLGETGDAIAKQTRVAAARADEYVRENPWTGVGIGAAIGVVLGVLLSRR

B1: YgaM (protein, UniProt P0ADQ7 1-109)
chain: MFNRPNRNDVDDGVQDIQNDVNQLADSLESVLKSWGSDAKGEAEAARSKAQALLKETRARMHGRTRVQQAARDAVGCADSFVRERPWCSVGTAAAVGIFIGALLSMRKS
B2: metK (protein, UniProt P0A817 1-384)
chain: MAKHLFTSESVSEGHPDKIADQISDAVLDAILEQDPKARVACETYVKTGMVLVGGEITTSAWVDIEEITRNTVREIGYVHSDMGFDANSCAVLSAIGKQSPDINQGVDRADPLEQGAGDQGLMFGYATNETDVLMPAPITYAHRLVQRQAEVRKNGTLPWLRPDAKSQVTFQYDDGKIVGIDAVVLSTQHSEEIDQKSLQEAVMEEIIKPILPAEWLTSATKFFINPTGRFVIGGPMGDCGLTGRKIIVDTYGGMARHGGGAFSGKDPSKVDRSAAYAARYVAKNIVAAGLADRCEIQVSYAIGVAEPTSIMVETFGTEKVPSEQLTLLVREFFDLRPYGLIQMLDLLHPIYKETAAYGHFGREHFPWEKTDKAQLLRDAAGLK
B3: yafD (protein, UniProt P0A8U2 1-266)
chain: MRKNTYAMRYVAGQPAERILPPGSFASIGQALPPGEPLSTEERIRILVWNIYKQQRAEWLSVLKNYGKDAHLVLLQEAQTTPELVQFATANYLAADQVPAFVLPQHPSGVMTLSAAHPVYCCPLREREPILRLAKSALVTVYPLPDTRLLMVVNIHAVNFSLGVDVYSKQLLPIGDQIAHHSGPVIMAGDFNAWSRRRMNALYRFAREMSLRQVRFTDDQRRRAFGRPLDFVFYRGLNVSEASVLVTRASDHNPLLVEFSPGKPDK
B4: yjjU (protein, UniProt P39407 1-357)
chain: MGQRIPVTLGNIAPLSLRPFQPGRIALVCEGGGQRGIFTAGVLDEFMRAQFNPFDLYLGTSAGAQNLSAFICNQPGYARKVIMRYTTKREFFDPLRFVRGGNLIDLDWLVEATASQMPLQMDTAARLFDSGKSFYMCACRQDDYAPNYFLPTKQNWLDVIRASSAIPGFYRSGVSLEGINYLDGGISDAIPVKEAARQGAKTLVVIRTVPSQMYYTPQWFKRMERWLGDSSLQPLVNLVQHHETSYRDIQQFIEKPPGKLRIFEIYPPKPLHSIALGSRIPALREDYKLGRLCGRYFLATVGKLLTEKAPLTRHLVPVVTPESIVIPPAPVANDTLVAEVSDAPQANDPTFNNEDLA
B5: dadX (protein, UniProt P29012 1-356)
chain: MTRPIQASLDLQALKQNLSIVRQAATHARVWSVVKANAYGHGIERIWSAIGATDGFALLNLEEAITLRERGWKGPILMLEGFFHAQDLEIYDQHRLTTCVHSNWQLKALQNARLKAPLDIYLKVNSGMNRLGFQPDRVLTVWQQLRAMANVGEMTLMSHFAEAEHPDGISGAMARIEQAAEGLECRRSLSNSAATLWHPEAHFDWVRPGIILYGASPSGQWRDIANTGLRPVMTLSSEIIGVQTLKAGERVGYGGRYTARDEQRIGIVAAGYADGYPRHAPTGTPVLVDGVRTMTVGTVSMDMLAVDLTPCPQAGIGTPVELWGKEIKIDDVAAAAGTVGYELMCALALRVPVVTV
B6: ftsE (protein, UniProt P0A9R7 1-222)
chain: MIRFEHVSKAYLGGRQALQGVTFHMQPGEMAFLTGHSGAGKSTLLKLICGIERPSAGKIWFSGHDITRLKNREVPFLRRQIGMIFQDHHLLMDRTVYDNVAIPLIIAGASGDDIRRRVSAALDKVGLLDKAKNFPIQLSGGEQQRVGIARAVVNKPAVLLADEPTGNLDDALSEGILRLFEEFNRVGVTVLMATHDINLISRRSYRMLTLSDGHLHGGVGHE
B7: gsiA (protein, UniProt P75796 1-623)
chain: MPHSDELDAGNVLAVENLNIAFMQDQQKIAAVRNLSFSLQRGETLAIVGESGSGKSVTALALMRLLEQAGGLVQCDKMLLQRRSREVIELSEQNAAQMRHVRGADMAMIFQEPMTSLNPVFTVGEQIAESIRLHQNASREEAMVEAKRMLDQVRIPEAQTILSRYPHQLSGGMRQRVMIAMALSCRPAVLIADEPTTALDVTIQAQILQLIKVLQKEMSMGVIFITHDMGVVAEIADRVLVMYQGEAVETGTVEQIFHAPQHPYTRALLAAVPQLGAMKGLDYPRRFPLISLEHPAKQAPPIEQKTVVDGEPVLRVRNLVTRFPLRSGLLNRVTREVHAVEKVSFDLWPGETLSLVGESGSGKSTTGRALLRLVESQGGEIIFNGQRIDTLSPGKLQALRRDIQFIFQDPYASLDPRQTIGDSIIEPLRVHGLLPGKDAAARVAWLLERVGLLPEHAWRYPHEFSGGQRQRICIARALALNPKVIIADEAVSALDVSIRGQIINLLLDLQRDFGIAYLFISHDMAVVERISHRVAVMYLGQIVEIGPRRAVFENPQHPYTRKLLAAVPVAEPSRQRPQRVLLSDDLPSNIHLRGEEVAAVSLQCVGPGHYVAQPQSEYAFMRR
B8: cysD (protein, UniProt P21156 1-302)
chain: MDQIRLTHLRQLEAESIHIIREVAAEFSNPVMLYSIGKDSSVMLHLARKAFYPGTLPFPLLHVDTGWKFREMYEFRDRTAKAYGCELLVHKNPEGVAMGINPFVHGSAKHTDIMKTEGLKQALNKYGFDAAFGGARRDEEKSRAKERIYSFRDRFHRWDPKNQRPELWHNYNGQINKGESIRVFPLSNWTEQDIWQYIWLENIDIVPLYLAAERPVLERDGMLMMIDDNRIDLQPGEVIKKRMVRFRTLGCWPLTGAVESNAQTLPEIIEEMLVSTTSERQGRVIDRDQAGSMELKKRQGYF
B9: ogt (protein, UniProt P0AFH0 1-171)
chain: MLRLLEEKIATPLGPLWVICDEQFRLRAVEWEEYSERMVQLLDIHYRKEGYERISATNPGGLSDKLREYFAGNLSIIDTLPTATGGTPFQREVWKTLRTIPCGQVMHYGQLAEQLGRPGAARAVGAANGSNPISIVVPCHRVIGRNGTMTGYAGGVQRKEWLLRHEGYLLL
B10: yciO (protein, UniProt P0AFR4 1-206)
chain: MSQFFYIHPDNPQQRLINQAVEIVRKGGVIVYPTDSGYALGCKIEDKNAMERICRIRQLPDGHNFTLMCRDLSELSTYSFVDNVAFRLMKNNTPGNYTFILKGTKEVPRRLLQEKRKTIGMRVPSNPIAQALLEALGEPMLSTSLMLPGSEFTESDPEEIKDRLEKQVDLIIHGGYLGQKPTTVIDLTDDTPVVVREGVGDVKPFL
B11: YacL-SPA (protein, UniProt P0A8E5 1-120)
chain: MDYEFLRDITGVVKVRMSMGHEVVGHWFNEEVKENLALLDEVEQAAHALKGSERSWQRAGHEYTLWMDGEEVMVRANQLEFAGDEMEEGMNYYDEESLSLCGVEDFLQVVAAYRNFVLQK
B12: rpoE (protein, UniProt P0AGB6 1-191)
chain: MSEQLTDQVLVERVQKGDQKAFNLLVVRYQHKVASLVSRYVPSGDVPDVVQEAFIKAYRALDSFRGDSAFYTWLYRIAVNTAKNYLVAQGRRPPSSDVDAIEAENFESGGALKEISNPENLMLSEELRQIVFRTIESLPEDLRMAITLRELDGLSYEEIAAIMDCPVGTVRSRIFRAREAIDNKVQPLIRR
B13: ompA (protein, UniProt P0A910 22-346)
chain: APKDNTWYTGAKLGWSQYHDTGFINNNGPTHENQLGAGAFGGYQVNPYVGFEMGYDWLGRMPYKGSVENGAYKAQGVQLTAKLGYPITDDLDIYTRLGGMVWRADTKSNVYGKNHDTGVSPVFAGGVEYAITPEIATRLEYQWTNNIGDAHTIGTRPDNGMLSLGVSYRFGQGEAAPVVAPAPAPAPEVQTKHFTLKSDVLFNFNKATLKPEGQAALDQLYSQLSNLDPKDGSVVVLGYTDRIGSDAYNQGLSERRAQSVVDYLISKGIPADKISARGMGESNPVTGNTCDNVKQRAALIDCLAPDRRVEIEVKGIKDVVTQPQA
B14: yifE (protein, UniProt P0ADN2 1-112)
chain: MAESFTTTNRYFDNKHYPRGFSRHGDFTIKEAQLLERHGYAFNELDLGKREPVTEEEKLFVAVCRGEREPVTEAERVWSKYMTRIKRPKRFHTLSGGKPQVEGAEDYTDSDD

These binders were tested against T1, YqjD (E. coli K12 (endogenous in BW25113)) (assay: cross-linking; BS3 or DSSO (0.75 mM, 2 h on ice) in each of 44 SEC fractions of E. coli K12 BW25113 lysate, fractions pooled, digested, SCX and hSAX fractionation, LC-MS; PPIs at 1% heteromeric decoy-based PPI-FDR).
With B1 the binding was “binds”.

These binders were tested against GroEL (E. coli K12 (endogenous in the lysate)) (UniProt P0A6F5) (assay: SEC; E. coli K12 lysate on a BioSep SEC-S4000 column at 4 °C, 44 fractions; elution profile of each protein by label-free quantitative MS (iBAQ); coelution).
In the case of B2, the binding is reported as “binds”.
For B3, the binding was “binds”.
In the case of B4, the binding is reported as “binds”.

The binders below were run against GroEL (E. coli K12 (endogenous in the lysate)) (UniProt P0A6F5) (assay: cross-linking; BS3 or DSSO (0.75 mM, 2 h on ice) in the single SEC fractions of E. coli K12 lysate, fractions pooled, LC-MS; PPIs at 1% heteromeric PPI-FDR).
In the case of B2, the binding is reported as “binds”.
B3 was tested, and the binding was “binds”.
B4 was tested, and the binding was “binds”.
With B5 the binding was “binds”.
In the case of B6, the binding is reported as “binds”.
With B7 the binding was “binds”.
In the case of B8, the binding is reported as “binds”.
With B9 the binding was “binds”.
B10 was tested, and the binding was “binds”.

These binders were tested against rpoC (E. coli K12 (endogenous in the lysate)) (UniProt P0A8T7) (assay: cross-linking; sulfo-SDA (50-1000 µM, 2 h on ice, UV 365 nm) on the TEV eluates of the YacL-SPA, RpoB-SPA and NusG-SPA enrichments; LC-MS; 2% residue pair FDR, 5% PPI FDR).
B11 was tested, and the binding was “binds”.
In the case of B12, the binding is reported as “binds”.
In the case of B13, the binding is reported as “binds”.

The binders below were run against RpoB-SPA (E. coli K12) (UniProt P0A8V2) in the same assay as above.
In the case of B14, the binding is reported as “binds”.

Each binder was assayed against rpoB (E. coli K12 (endogenous in the lysate)) (UniProt P0A8V2) in the same assay as above.
For B11, the binding was “binds”.
